Assay [1] has as its target dihydrolipoamide succinyltransferase (DLST) (E. coli BL21 (DE3)) (UniProt P0AFG6). As to the kind of experiment: negative-stain EM; SEC-purified peak at 0.10 mg/mL, 2 % uranyl formate; 2D classes and 3D refinement with octahedral symmetry; both purified.
The target is the same in assay [2]. The experiment in a line: cryo-EM structure; single particle analysis of the SEC peak of the nanoparticle preparation purified without glycine or arginine; octahedral symmetry enforced, 2.51 Å; about 0.3 mg/mL, buffer with DDM; both purified.

Results are given in words; binding and its absence hold for the method and conditions named. Some entries that bind do so weakly or less than the wild type.

B1: dihydrolipoamide succinyltransferase (DLST) (enzyme, E. coli BL21 (DE3), UniProt P0AFG6 1-405, looked up)
chain: MSSVDILVPDLPESVADATVATWHKKPGDAVVRDEVLVEIETDKVVLEVPASADGILDAVLEDEGTTVTSRQILGRLREGNSAGKETSAKSEEKASTPAQRQQASLEEQNNDALSPAIRRLLAEHNLDASAIKGTGVGGRLTREDVEKHLAKAPAKESAPAAAAPAAQPALAARSEKRVPMTRLRKRVAERLLEAKNSTAMLTTFNEVNMKPIMDLRKQYGEAFEKRHGIRLGFMSFYVKAVVEALKRYPEVNASIDGDDVVYHNYFDVSMAVSTPRGLVTPVLRDVDTLGMADIEKKIKELAVKGRDGKLTVEDLTGGNFTITNGGVFGSLMSTPIINPPQSAILGMHAIKDRPMAVNGQVEILPMMYLALSYDHRLIDGRESVGFLVTIKELLEDPTRLLLDV
notes: dihydrolipoamide succinyltransferase (DLST) of E. coli BL21(DE3), UniProt A0A140NDX4; host protein, no construct; the first 170 residues were unresolved in the cryo-EM map and only the catalytic domain was modelled; also called dihydrolipoyllysine-residue succinyltransferase; contaminant nanoparticle; source: endogenous, E. coli BL21(DE3) expression host; co-purified as a contaminant with …
For the molecule B1, the binding result in assay [1] and in assay [2] was “binds” each time.
